From PubChem BioAssay come the findings set out here.

The other results are listed elsewhere or left out. Further columns of the screen follow, without active or inactive calls. For part of these data: Most of these compounds were active or inconclusive in the main read-out, so they are no random draw.

The first test in a line: enhancers of SMN2 over SMN1 splicing, cell-based, SMN2/SMN1 luciferase reporters (AID 1598). As to conditions: SMN2 vs SMN1 luciferase splicing reporter cells, at 10 µM; SMN1 luciferase ratio: measured here: SMN1 luciferase reporter average; SMN2 luciferase ratio: measured here: SMN2 luciferase reporter average, stronger effect = higher value.
`O=c1cc(-c2ccccc2)oc2cc(O)c(O)cc12`: the SMN1 luciferase ratio turned out to be 2.03 and the SMN2 luciferase ratio was found to be 2.27.
Consider `CC(C)NCC(O)c1ccc(O)c(O)c1` (configuration not stated), for which the SMN1 luciferase ratio is 0.97 and the SMN2 luciferase ratio was 0.99.
`C[C@]12CCC3c4ccc(OC(=O)CCC(=O)O)cc4CCC3C1CCC2=O` (some centres not stated): the SMN1 luciferase ratio amounted to 0.93 and the SMN2 luciferase ratio came to 0.83.
Take `COc1cc(NC(C)CCCN)c2ncccc2c1` (configuration not stated): the SMN2 luciferase ratio stood at 0.92 and the SMN1 luciferase ratio came out at 0.95.
On to `C[N+]1(C)CCCC(OC(=O)C(O)(c2ccccc2)c2ccccc2)C1` (configuration not stated), for which the SMN2 luciferase ratio was determined as 0.8 and the SMN1 luciferase ratio came to 0.89.
As for `O=C(O)c1cc(=O)c2ccccc2o1`, the SMN2 luciferase ratio turned out to be 0.79 and the SMN1 luciferase ratio stood at 0.85.
Taken in the same sequence, the figures for `O=C1c2ccccc2C(=O)C1c1ccccc1` were 1.01 and 0.99.
Taken in the same sequence, the figures for `NC(=O)NO` were 0.79 and 0.83.
The like results for `CC(C)(Oc1ccc(CCNC(=O)c2ccc(Cl)cc2)cc1)C(=O)O` were, in that order, 0.89 and 0.88.
With `CC(=O)N[C@@H](Cc1c[nH]c2ccccc12)C(=O)O`, the SMN1 luciferase ratio is 0.98 and the SMN2 luciferase ratio was determined as 0.89.
Taken in the same sequence, the figures for `O=C(O)c1cn(C2CC2)c2cc(N3CCNCC3)c(F)cc2c1=O` were 0.83 and 0.88.
Consider `NC(N)=Nc1nc(CSCC/C(N)=N\S(N)(=O)=O)cs1`, for which the SMN2 luciferase ratio was 0.91 and the SMN1 luciferase ratio came out at 0.92.
The like results for `Cc1onc(-c2ccccc2)c1C(=O)NC1C(=O)N2[C@@H]1SC(C)(C)[C@@H]2C(=O)O` (some centres not stated) were, in that order, 0.89 and 0.88.
The like results for `NS(=O)(=O)c1cc2c(cc1Cl)NC(C(Cl)Cl)NS2(=O)=O` (configuration not stated) were, in that order, 0.88 and 0.92.
With `C[N+]1(C)C2CC[C@H]1CC(OC(=O)C(O)c1ccccc1)C2` (some centres not stated), the SMN2 luciferase ratio came out at 0.92 and the SMN1 luciferase ratio was 0.94.
Turning to `CCCCNc1ccc(C(=O)OCCN(C)C)cc1`, the SMN1 luciferase ratio is 0.9 and the SMN2 luciferase ratio turned out to be 0.91.
`Nc1ccc(C(=O)O)c(O)c1`: the SMN2 luciferase ratio turned out to be 0.88 and the SMN1 luciferase ratio came out at 0.9.
On to `CCN(CC)CCOC(=O)C1(C2CCCCC2)CCCCC1`, for which the SMN1 luciferase ratio is 0.96 and the SMN2 luciferase ratio is 0.96.
Turning to `Cn1c(=O)c2c(ncn2CCO)n(C)c1=O`, the SMN2 luciferase ratio came to 0.89 and the SMN1 luciferase ratio amounted to 0.95.
In the case of `CC(C)NCC(O)c1cc(O)cc(O)c1` (configuration not stated), the SMN2 luciferase ratio is 0.94 and the SMN1 luciferase ratio was determined as 0.91.
With `Nc1nc2c(c(=O)[nH]1)N(C=O)C(CNc1ccc(C(=O)N[C@@H](CCC(=O)O)C(=O)O)cc1)CN2` (some centres not stated), the SMN2 luciferase ratio stood at 0.98 and the SMN1 luciferase ratio stood at 0.98.
Consider `Cc1ccc(O)cc1`, for which the SMN2 luciferase ratio came to 1.06 and the SMN1 luciferase ratio was determined as 0.9.
Regarding `O=C(O)c1cccnc1Nc1cccc(C(F)(F)F)c1`, the SMN1 luciferase ratio was 0.9 and the SMN2 luciferase ratio worked out at 0.91.
For the compound `CCOC(=O)[C@H](CCc1ccccc1)N[C@@H](C)C(=O)N1Cc2ccccc2C[C@H]1C(=O)O`, the SMN2 luciferase ratio stood at 0.95 and the SMN1 luciferase ratio came to 0.95.
Turning to `CN1C2CC(OC(=O)[C@H](CO)c3ccccc3)C[C@H]1[C@H]1OC21` (some centres not stated), the SMN2 luciferase ratio worked out at 0.96 and the SMN1 luciferase ratio was 0.87.
For `CCN(CC)CCOC(=O)C(Cc1cccc2ccccc12)CC1CCCO1` (configuration not stated), the SMN1 luciferase ratio worked out at 0.82 and the SMN2 luciferase ratio was 0.96.
`COC(=O)[C@H]1[C@H]2C[C@@H]3c4[nH]c5cc(OC)ccc5c4CCN3C[C@H]2C[C@@H](OC(=O)c2cc(OC)c(OC)c(OC)c2)[C@@H]1OC`: the SMN1 luciferase ratio was 0.87 and the SMN2 luciferase ratio turned out to be 0.82.
Regarding `CC(C)OC(=O)C(C)(C)Oc1ccc(C(=O)c2ccc(Cl)cc2)cc1`, the SMN1 luciferase ratio came out at 0.85 and the SMN2 luciferase ratio stood at 0.82.
Regarding `Oc1ccc(Cl)c2cccnc12`, the SMN1 luciferase ratio was 0.79 and the SMN2 luciferase ratio was 0.94.
For `CN1CCOC(c2ccccc2)c2ccccc2C1` (configuration not stated), the SMN2 luciferase ratio was 0.86 and the SMN1 luciferase ratio came out at 0.85.
In the case of `C[C@]12CCC3c4ccc(OS(=O)(=O)O)cc4CCC3C1CC[C@H]2O` (some centres not stated), the SMN2 luciferase ratio is 1.03 and the SMN1 luciferase ratio amounted to 0.92.
Take `Nc1nc2ncc(CNc3ccc(C(=O)N[C@@H](CCC(=O)O)C(=O)O)cc3)nc2c(=O)[nH]1`: the SMN1 luciferase ratio was 0.83 and the SMN2 luciferase ratio is 1.03.
`NNc1nncc2ccccc12`: the SMN2 luciferase ratio was found to be 0.58 and the SMN1 luciferase ratio was determined as 0.47.
In the case of `COc1c2occc2cc2ccc(=O)oc12`, the SMN1 luciferase ratio amounted to 0.85 and the SMN2 luciferase ratio was determined as 0.96.
On to `CC(C)COCC(CN(Cc1ccccc1)c1ccccc1)N1CCCC1` (configuration not stated), for which the SMN1 luciferase ratio is 0.81 and the SMN2 luciferase ratio worked out at 0.86.
Consider `CO[C@@]1(NC(=O)C(C(=O)O)c2ccc(O)cc2)C(=O)N2C(C(=O)O)=C(CSc3nnnn3C)CO[C@@H]21` (some centres not stated), for which the SMN1 luciferase ratio is 1.02 and the SMN2 luciferase ratio worked out at 1.06.
As to `Nc1ccc(S(=O)(=O)c2ccc(N)cc2)cc1`, the SMN2 luciferase ratio was found to be 0.91 and the SMN1 luciferase ratio was determined as 0.92.
Consider `O=C1NS(=O)(=O)c2ccccc21`, for which the SMN2 luciferase ratio came to 0.81 and the SMN1 luciferase ratio is 0.92.
Take `O=C1O[C@@H](CO)[C@H](O)[C@@H](O)[C@@H]1O`: the SMN2 luciferase ratio was 0.86 and the SMN1 luciferase ratio is 0.93.

Another test can be described thus: protection against mutant huntingtin cytotoxicity, PC12 cells, LDH release (AID 1610). As to conditions: PC12 mutant huntingtin toxicity, final LDH at 4 uM, stronger effect = lower value. Background: LDH leaks from cells whose membrane has failed.
With `O=c1cc(-c2ccccc2)oc2cc(O)c(O)cc12`, the normalised LDH release is 0.947.
With `CC(C)NCC(O)c1ccc(O)c(O)c1` (configuration not stated), the normalised LDH release was determined as 1.11.
`C[C@]12CCC3c4ccc(OC(=O)CCC(=O)O)cc4CCC3C1CCC2=O` (some centres not stated) had a normalised LDH release of 0.972.
Consider `COc1cc(NC(C)CCCN)c2ncccc2c1` (configuration not stated), for which the normalised LDH release worked out at 1.14.
Turning to `C[N+]1(C)CCCC(OC(=O)C(O)(c2ccccc2)c2ccccc2)C1` (configuration not stated), the normalised LDH release came to 1.06.
In the case of `O=C(O)c1cc(=O)c2ccccc2o1`, the normalised LDH release stood at 0.793.
Same read-out and setting: the value for `O=C1c2ccccc2C(=O)C1c1ccccc1` was 0.651; that for `NC(=O)NO` was 0.872.
In turn, `CC(C)(Oc1ccc(CCNC(=O)c2ccc(Cl)cc2)cc1)C(=O)O` displayed a normalised LDH release of 0.984.
In turn, `CC(=O)N[C@@H](Cc1c[nH]c2ccccc12)C(=O)O` yielded a normalised LDH release of 0.748.
As for `O=C(O)c1cn(C2CC2)c2cc(N3CCNCC3)c(F)cc2c1=O`, the normalised LDH release was 1.53.
The same measure, in the same setting: with `NC(N)=Nc1nc(CSCC/C(N)=N\S(N)(=O)=O)cs1` the figure was 0.919; with `Cc1onc(-c2ccccc2)c1C(=O)NC1C(=O)N2[C@@H]1SC(C)(C)[C@@H]2C(=O)O` (some centres not stated), 1.11; with `NS(=O)(=O)c1cc2c(cc1Cl)NC(C(Cl)Cl)NS2(=O)=O` (configuration not stated), 0.537.
The compound `C[N+]1(C)C2CC[C@H]1CC(OC(=O)C(O)c1ccccc1)C2` (some centres not stated) returned a normalised LDH release of 0.872.
The compound `CCCCNc1ccc(C(=O)OCCN(C)C)cc1` registered a normalised LDH release of 0.729.
In turn, `Nc1ccc(C(=O)O)c(O)c1` had a normalised LDH release of 0.958.
Still for that read-out and setting: the value for `CCN(CC)CCOC(=O)C1(C2CCCCC2)CCCCC1` was 0.941; that for `Cn1c(=O)c2c(ncn2CCO)n(C)c1=O` was 0.98.
The same measure, in the same setting: with `CC(C)NCC(O)c1cc(O)cc(O)c1` (configuration not stated) the figure was 0.936.
As for `Nc1nc2c(c(=O)[nH]1)N(C=O)C(CNc1ccc(C(=O)N[C@@H](CCC(=O)O)C(=O)O)cc1)CN2` (some centres not stated), the normalised LDH release is 0.892.
Still for that read-out and setting: the value for `Cc1ccc(O)cc1` was 0.863; that for `O=C(O)c1cccnc1Nc1cccc(C(F)(F)F)c1` was 1.08.
Compound `CCOC(=O)[C@H](CCc1ccccc1)N[C@@H](C)C(=O)N1Cc2ccccc2C[C@H]1C(=O)O` returned a normalised LDH release of 0.789.
In the case of `CN1C2CC(OC(=O)[C@H](CO)c3ccccc3)C[C@H]1[C@H]1OC21` (some centres not stated), the normalised LDH release amounted to 0.924.
For `CCN(CC)CCOC(=O)C(Cc1cccc2ccccc12)CC1CCCO1` (configuration not stated), the normalised LDH release is 0.61.
For `COC(=O)[C@H]1[C@H]2C[C@@H]3c4[nH]c5cc(OC)ccc5c4CCN3C[C@H]2C[C@@H](OC(=O)c2cc(OC)c(OC)c(OC)c2)[C@@H]1OC`, the normalised LDH release worked out at 0.778.
On the same count and under the same terms, the value for `CC(C)OC(=O)C(C)(C)Oc1ccc(C(=O)c2ccc(Cl)cc2)cc1` was 0.869; that for `Oc1ccc(Cl)c2cccnc12` was 1.3; that for `CN1CCOC(c2ccccc2)c2ccccc2C1` (configuration not stated) was 0.77.
In turn, `C[C@]12CCC3c4ccc(OS(=O)(=O)O)cc4CCC3C1CC[C@H]2O` (some centres not stated) returned a normalised LDH release of 0.938.
`Nc1nc2ncc(CNc3ccc(C(=O)N[C@@H](CCC(=O)O)C(=O)O)cc3)nc2c(=O)[nH]1` had a normalised LDH release of 0.932.
The compound `NNc1nncc2ccccc12` displayed a normalised LDH release of 1.05.
In the case of `COc1c2occc2cc2ccc(=O)oc12`, the normalised LDH release was 0.914.
The compound `CC(C)COCC(CN(Cc1ccccc1)c1ccccc1)N1CCCC1` (configuration not stated) displayed a normalised LDH release of 0.978.
Regarding `CO[C@@]1(NC(=O)C(C(=O)O)c2ccc(O)cc2)C(=O)N2C(C(=O)O)=C(CSc3nnnn3C)CO[C@@H]21` (some centres not stated), the normalised LDH release was found to be 1.13.
On the same count and under the same terms, the value for `Nc1ccc(S(=O)(=O)c2ccc(N)cc2)cc1` was 1.32; that for `O=C1NS(=O)(=O)c2ccccc21` was 0.973.
`O=C1O[C@@H](CO)[C@H](O)[C@@H](O)[C@@H]1O` gave a normalised LDH release of 0.644.
